{"source": "PubChem BioAssay AID1259424 (University of Nebraska Medical Center, 2018)", "screen": "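Find knockdowns that reproduce the expression shifts seen after KSR1 loss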 (primary screen)", "cells": "human HCT116 colon cancer cells", "reagents": "siRNA pool against human genes, 50 nM", "read-out": "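Six signature mRNAs by branched-DNA multiplex assay, scaled to two housekeeping genes and non-targeting median, log2; matched to mean KSR1 knockdown profile by Pearson correlation and euclidean distance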", "direction": "mean correlation with KSR1 profile: higher = expression change more like KSR1 knockdown", "note": "Shown is one part, drawn at random, of about 14,000 reagents tested. 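Higher correlation or smaller distance means closer resemblance to KSR1 loss; control wells, including KSR1 knockdowns, recur on many plates.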 Not all columns of the deposit are shown. No sequences are given here. Not stated in the record: the time to read-out."}
{"Gene":"MAP2K2 (GeneID 5605)","mean correlation with KSR1 profile":0.613}
{"Gene":"CLDN5 (GeneID 7122)","mean correlation with KSR1 profile":0.108}
{"Gene":"ALOX5AP (GeneID 241)","mean correlation with KSR1 profile":0.146}
{"Gene":"RRP8 (GeneID 23378)","mean correlation with KSR1 profile":0.699}
{"Gene":"TM9SF3 (GeneID 56889)","mean correlation with KSR1 profile":-0.714}
{"Gene":"UGT2B15 (GeneID 7366)","mean correlation with KSR1 profile":-0.0405}
{"Gene":"SFTPC (GeneID 6440)","mean correlation with KSR1 profile":-0.254}
{"Gene":"MAP3K1 (GeneID 4214)","mean correlation with KSR1 profile":-0.0977}
{"Gene":"PGRMC1 (GeneID 10857)","mean correlation with KSR1 profile":-0.718}
{"Gene":"VLDLR (GeneID 7436)","mean correlation with KSR1 profile":0.427}
{"Gene":"PTPRB (GeneID 5787)","mean correlation with KSR1 profile":0.118}
{"Gene":"AP1M1 (GeneID 8907)","mean correlation with KSR1 profile":-0.294}
{"Gene":"DGLUCY (GeneID 80017)","mean correlation with KSR1 profile":0.0667}

Ordered by “mean correlation with KSR1 profile” (low to high): 2 of the entries above
{"Gene":"SFTPC (GeneID 6440)","mean correlation with KSR1 profile":-0.254}
{"Gene":"UGT2B15 (GeneID 7366)","mean correlation with KSR1 profile":-0.0405}

The results go on.
{"Gene":"EIF4A2 (GeneID 1974)","mean correlation with KSR1 profile":-0.688}
{"Gene":"RASAL1 (GeneID 8437)","mean correlation with KSR1 profile":0.434}
{"Gene":"UBAC1 (GeneID 10422)","mean correlation with KSR1 profile":-0.00804}
{"Gene":"NMUR1 (GeneID 10316)","mean correlation with KSR1 profile":0.711}
{"Gene":"PARVB (GeneID 29780)","mean correlation with KSR1 profile":0.353}
{"Gene":"LORICRIN (GeneID 4014)","mean correlation with KSR1 profile":-0.0272}
{"Gene":"CLDN15 (GeneID 24146)","mean correlation with KSR1 profile":-0.525}
{"Gene":"TSPYL5 (GeneID 85453)","mean correlation with KSR1 profile":0.72}
{"Gene":"RNF150 (GeneID 57484)","mean correlation with KSR1 profile":-0.54}
{"Gene":"OSBPL3 (GeneID 26031)","mean correlation with KSR1 profile":-0.119}
{"Gene":"ZNF75D (GeneID 7626)","mean correlation with KSR1 profile":0.0498}
{"Gene":"ELL3 (GeneID 80237)","mean correlation with KSR1 profile":0.622}
{"Gene":"PIP5K1A (GeneID 8394)","mean correlation with KSR1 profile":0.31}
{"Gene":"MERTK (GeneID 10461)","mean correlation with KSR1 profile":0.306}
{"Gene":"PWP1 (GeneID 11137)","mean correlation with KSR1 profile":-0.758}
{"Gene":"HTN1 (GeneID 3346)","mean correlation with KSR1 profile":0.149}
{"Gene":"MBP (GeneID 4155)","mean correlation with KSR1 profile":-0.489}
{"Gene":"NPY4R (GeneID 5540)","mean correlation with KSR1 profile":-0.0556}
{"Gene":"MED13 (GeneID 9969)","mean correlation with KSR1 profile":-0.353}
{"Gene":"PNRC1 (GeneID 10957)","mean correlation with KSR1 profile":0.569}
{"Gene":"ETNK2 (GeneID 55224)","mean correlation with KSR1 profile":-0.19}
{"Gene":"PIGR (GeneID 5284)","mean correlation with KSR1 profile":0.0739}
{"Gene":"CGA (GeneID 1081)","mean correlation with KSR1 profile":0.0299}
